Test results published in the supplement of paper PMC6411743.
± gives the standard deviation of the averaged measurements. Only a part is listed here, and it is no random draw.

The chains behind the UniProt entries cited, without tags or fusion partners. Where a name states a change or a piece, a line headed by the entry shows the natural chain unless it says otherwise.
UniProt P42574: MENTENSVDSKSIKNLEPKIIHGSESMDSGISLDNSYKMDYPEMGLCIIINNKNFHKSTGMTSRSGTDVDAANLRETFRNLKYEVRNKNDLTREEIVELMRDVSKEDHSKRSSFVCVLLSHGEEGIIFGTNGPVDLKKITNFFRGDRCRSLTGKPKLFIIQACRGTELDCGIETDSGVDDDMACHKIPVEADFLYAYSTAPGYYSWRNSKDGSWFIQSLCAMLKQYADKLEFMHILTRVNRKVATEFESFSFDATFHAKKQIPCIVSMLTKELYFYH
UniProt P51159: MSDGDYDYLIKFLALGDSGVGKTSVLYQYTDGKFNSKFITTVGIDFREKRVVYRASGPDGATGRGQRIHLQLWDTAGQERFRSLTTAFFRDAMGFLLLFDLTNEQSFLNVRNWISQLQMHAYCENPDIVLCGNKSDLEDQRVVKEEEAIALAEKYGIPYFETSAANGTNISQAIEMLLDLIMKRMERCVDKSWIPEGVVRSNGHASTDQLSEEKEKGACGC
UniProt P42285: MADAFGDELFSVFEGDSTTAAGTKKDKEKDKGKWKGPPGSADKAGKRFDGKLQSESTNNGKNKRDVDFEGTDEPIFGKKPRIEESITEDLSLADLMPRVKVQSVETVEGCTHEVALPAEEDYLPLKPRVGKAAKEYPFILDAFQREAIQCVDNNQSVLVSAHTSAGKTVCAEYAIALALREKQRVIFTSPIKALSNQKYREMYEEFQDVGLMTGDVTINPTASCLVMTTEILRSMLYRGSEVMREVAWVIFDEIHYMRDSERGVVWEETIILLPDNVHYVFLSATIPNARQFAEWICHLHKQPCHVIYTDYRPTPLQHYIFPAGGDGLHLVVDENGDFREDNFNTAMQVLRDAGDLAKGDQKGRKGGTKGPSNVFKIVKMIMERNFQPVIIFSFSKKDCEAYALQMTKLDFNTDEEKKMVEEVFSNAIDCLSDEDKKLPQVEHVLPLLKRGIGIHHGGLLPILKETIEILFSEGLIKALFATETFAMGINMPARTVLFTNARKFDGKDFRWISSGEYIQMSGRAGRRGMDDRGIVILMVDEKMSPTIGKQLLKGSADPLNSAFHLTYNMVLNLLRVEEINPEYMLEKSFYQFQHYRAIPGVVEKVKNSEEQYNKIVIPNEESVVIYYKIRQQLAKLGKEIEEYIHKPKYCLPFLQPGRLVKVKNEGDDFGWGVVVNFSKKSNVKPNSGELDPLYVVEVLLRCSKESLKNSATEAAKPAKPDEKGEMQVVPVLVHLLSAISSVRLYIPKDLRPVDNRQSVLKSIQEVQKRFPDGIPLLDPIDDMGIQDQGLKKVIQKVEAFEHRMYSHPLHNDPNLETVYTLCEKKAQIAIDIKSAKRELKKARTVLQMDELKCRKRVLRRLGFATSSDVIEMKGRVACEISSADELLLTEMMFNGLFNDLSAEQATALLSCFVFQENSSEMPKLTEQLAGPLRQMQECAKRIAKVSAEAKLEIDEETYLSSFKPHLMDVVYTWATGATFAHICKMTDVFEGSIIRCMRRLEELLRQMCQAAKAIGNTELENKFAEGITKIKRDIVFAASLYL
UniProt P41227: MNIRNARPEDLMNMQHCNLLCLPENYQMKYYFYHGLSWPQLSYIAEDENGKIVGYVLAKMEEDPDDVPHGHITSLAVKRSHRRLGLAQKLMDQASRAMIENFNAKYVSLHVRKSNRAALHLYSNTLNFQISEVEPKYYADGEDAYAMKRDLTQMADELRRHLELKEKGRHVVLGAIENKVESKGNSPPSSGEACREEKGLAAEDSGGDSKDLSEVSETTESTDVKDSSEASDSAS
UniProt P42898: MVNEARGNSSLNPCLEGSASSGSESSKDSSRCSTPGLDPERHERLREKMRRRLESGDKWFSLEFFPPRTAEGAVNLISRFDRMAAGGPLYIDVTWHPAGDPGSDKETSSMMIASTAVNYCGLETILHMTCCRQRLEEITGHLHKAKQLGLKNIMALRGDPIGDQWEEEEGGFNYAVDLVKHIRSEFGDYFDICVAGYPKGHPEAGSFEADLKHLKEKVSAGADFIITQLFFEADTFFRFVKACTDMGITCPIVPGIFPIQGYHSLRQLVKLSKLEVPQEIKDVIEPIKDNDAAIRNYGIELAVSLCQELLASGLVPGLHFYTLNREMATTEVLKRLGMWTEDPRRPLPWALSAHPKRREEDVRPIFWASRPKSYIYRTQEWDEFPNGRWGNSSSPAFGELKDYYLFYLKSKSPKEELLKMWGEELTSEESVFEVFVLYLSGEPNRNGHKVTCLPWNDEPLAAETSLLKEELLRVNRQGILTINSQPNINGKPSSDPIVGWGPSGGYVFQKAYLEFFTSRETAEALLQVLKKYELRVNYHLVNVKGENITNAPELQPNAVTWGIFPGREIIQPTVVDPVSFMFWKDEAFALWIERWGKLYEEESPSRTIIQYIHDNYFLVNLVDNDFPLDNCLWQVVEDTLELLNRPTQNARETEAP
UniProt P51149, whole entry: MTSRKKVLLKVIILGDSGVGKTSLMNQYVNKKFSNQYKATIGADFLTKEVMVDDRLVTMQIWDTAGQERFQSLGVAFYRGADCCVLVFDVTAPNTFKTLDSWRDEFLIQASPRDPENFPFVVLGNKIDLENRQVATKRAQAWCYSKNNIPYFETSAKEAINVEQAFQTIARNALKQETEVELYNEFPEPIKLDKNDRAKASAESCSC
UniProt P52655, whole entry: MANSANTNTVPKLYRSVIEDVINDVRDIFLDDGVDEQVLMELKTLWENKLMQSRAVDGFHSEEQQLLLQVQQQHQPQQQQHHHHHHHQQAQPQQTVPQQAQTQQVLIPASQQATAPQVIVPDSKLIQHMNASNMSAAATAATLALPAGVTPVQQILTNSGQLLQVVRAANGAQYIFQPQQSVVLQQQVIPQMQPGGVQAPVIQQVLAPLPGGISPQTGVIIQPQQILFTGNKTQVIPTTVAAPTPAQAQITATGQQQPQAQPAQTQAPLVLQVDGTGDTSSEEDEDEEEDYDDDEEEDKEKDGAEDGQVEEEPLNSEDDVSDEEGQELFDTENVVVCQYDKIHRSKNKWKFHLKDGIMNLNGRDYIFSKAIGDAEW
UniProt P50749: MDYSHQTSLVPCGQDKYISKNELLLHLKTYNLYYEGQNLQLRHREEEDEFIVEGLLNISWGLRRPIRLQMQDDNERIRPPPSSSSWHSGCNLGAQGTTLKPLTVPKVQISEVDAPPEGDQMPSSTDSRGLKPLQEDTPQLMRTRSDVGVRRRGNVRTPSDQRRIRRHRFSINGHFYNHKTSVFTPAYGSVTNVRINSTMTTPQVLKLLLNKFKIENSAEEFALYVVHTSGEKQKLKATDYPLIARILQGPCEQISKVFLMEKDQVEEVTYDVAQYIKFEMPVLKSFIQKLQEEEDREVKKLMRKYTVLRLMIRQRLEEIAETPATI
UniProt P49257: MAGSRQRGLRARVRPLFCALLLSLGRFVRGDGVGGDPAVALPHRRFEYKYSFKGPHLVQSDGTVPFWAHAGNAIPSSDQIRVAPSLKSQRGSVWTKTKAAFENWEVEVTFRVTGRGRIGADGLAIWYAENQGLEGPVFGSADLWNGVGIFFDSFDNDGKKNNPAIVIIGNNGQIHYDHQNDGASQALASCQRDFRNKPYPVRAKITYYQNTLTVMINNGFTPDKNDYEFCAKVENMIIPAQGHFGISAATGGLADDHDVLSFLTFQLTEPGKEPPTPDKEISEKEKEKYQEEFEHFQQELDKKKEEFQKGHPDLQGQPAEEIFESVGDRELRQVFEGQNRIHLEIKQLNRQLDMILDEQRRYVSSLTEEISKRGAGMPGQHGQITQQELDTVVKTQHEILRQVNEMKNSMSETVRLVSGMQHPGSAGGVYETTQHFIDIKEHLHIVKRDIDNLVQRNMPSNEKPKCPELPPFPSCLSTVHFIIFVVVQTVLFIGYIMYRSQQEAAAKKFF
UniProt P52306: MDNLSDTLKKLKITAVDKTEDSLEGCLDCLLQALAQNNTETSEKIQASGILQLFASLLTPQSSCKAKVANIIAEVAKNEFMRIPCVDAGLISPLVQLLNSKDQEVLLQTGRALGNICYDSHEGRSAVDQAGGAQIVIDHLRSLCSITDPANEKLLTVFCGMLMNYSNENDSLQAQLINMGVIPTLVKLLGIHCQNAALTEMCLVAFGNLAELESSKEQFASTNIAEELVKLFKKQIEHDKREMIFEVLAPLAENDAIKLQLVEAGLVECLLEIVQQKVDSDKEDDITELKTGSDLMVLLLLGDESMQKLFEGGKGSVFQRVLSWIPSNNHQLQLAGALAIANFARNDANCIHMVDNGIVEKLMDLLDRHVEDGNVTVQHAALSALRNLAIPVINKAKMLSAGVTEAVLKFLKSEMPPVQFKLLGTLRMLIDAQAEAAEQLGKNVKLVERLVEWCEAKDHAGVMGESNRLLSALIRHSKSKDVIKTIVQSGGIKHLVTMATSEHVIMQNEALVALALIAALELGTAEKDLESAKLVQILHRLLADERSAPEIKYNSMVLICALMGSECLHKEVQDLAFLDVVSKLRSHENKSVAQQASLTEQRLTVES
UniProt P49005: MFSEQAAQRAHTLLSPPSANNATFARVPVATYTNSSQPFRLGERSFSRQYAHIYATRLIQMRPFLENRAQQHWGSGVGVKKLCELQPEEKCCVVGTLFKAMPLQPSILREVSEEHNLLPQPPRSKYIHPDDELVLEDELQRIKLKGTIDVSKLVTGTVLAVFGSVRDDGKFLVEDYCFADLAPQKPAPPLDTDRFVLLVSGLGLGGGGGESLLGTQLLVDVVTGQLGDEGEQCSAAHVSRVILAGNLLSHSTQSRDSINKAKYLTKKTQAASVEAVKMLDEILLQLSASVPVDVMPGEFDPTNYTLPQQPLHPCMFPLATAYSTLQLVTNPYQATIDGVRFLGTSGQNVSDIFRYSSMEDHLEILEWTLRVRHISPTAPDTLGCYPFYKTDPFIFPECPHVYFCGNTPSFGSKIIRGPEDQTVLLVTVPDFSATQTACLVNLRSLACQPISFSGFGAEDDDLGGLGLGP
UniProt P40425: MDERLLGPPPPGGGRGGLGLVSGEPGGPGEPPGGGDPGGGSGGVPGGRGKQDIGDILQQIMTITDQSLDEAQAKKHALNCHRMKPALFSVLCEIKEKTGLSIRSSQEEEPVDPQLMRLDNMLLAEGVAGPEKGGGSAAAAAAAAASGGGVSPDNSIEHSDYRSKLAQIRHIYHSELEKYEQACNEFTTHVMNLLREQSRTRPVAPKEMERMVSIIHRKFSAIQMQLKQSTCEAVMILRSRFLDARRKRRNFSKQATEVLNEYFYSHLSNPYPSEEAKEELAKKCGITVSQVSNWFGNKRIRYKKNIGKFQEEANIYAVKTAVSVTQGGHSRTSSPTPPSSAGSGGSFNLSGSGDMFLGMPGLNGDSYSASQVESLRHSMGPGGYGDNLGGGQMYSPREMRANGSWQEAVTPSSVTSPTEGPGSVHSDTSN
UniProt P53611: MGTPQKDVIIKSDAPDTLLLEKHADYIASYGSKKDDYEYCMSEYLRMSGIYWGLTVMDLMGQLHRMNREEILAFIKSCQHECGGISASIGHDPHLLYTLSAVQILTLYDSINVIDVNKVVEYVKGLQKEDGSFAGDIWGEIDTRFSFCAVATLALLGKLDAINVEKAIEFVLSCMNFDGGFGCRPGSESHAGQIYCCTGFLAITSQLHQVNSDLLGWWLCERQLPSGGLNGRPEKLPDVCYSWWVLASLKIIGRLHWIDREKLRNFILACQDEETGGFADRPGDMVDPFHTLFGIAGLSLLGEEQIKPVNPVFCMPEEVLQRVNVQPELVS
UniProt P49643: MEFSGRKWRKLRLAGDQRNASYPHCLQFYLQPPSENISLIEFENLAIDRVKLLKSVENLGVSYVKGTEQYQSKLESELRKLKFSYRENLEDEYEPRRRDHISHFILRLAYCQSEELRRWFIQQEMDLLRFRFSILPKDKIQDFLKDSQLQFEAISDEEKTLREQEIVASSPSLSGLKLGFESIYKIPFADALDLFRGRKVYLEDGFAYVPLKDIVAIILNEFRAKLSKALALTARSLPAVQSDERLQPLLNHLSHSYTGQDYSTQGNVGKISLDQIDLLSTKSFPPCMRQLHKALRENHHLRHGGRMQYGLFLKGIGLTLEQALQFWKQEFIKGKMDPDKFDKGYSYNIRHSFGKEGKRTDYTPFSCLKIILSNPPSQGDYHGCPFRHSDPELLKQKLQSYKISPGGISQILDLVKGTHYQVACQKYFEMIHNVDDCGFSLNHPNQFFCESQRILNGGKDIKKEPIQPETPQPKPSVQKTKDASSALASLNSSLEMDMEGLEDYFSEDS
UniProt P48059, whole entry: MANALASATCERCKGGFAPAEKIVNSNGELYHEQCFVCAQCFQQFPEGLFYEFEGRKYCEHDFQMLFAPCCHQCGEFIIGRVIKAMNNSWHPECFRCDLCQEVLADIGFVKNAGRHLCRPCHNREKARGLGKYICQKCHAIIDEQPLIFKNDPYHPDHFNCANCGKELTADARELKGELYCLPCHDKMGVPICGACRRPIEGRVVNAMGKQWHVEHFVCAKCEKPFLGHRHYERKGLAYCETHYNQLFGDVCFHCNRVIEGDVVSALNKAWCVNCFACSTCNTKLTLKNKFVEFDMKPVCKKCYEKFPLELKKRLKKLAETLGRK

Compound: Nc1ncnc2c1ncn2[C@@H]1O[C@H](COP(=O)(O)OP(=O)(O)NP(=O)(O)O)[C@@H](O)[C@H]1O [adenylyl imidodiphosphate]
Test: NP40-soluble protein abundance relative to vehicle (solubility fold change) (ratio); higher = more soluble protein in presence of AMP-PNP
In short: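 Crude Jurkat lysate, prepared by Dounce homogenisation, was exposed to eight concentrations from 0.1 to 10 mM for 10 min at room temperature and then 3 min at 37 °C. Solubilisation used 0.8% NP40 with benzonase for 60 min at 4 °C, followed by ultracentrifugation and TMT labelling of the supernatant for LC-MS/MS. After vsn normalisation of intensities, each value is the fold change against the detergent-processed vehicle within each replicate, across three independent experiments.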

Target	NP40-soluble protein abundance (concentration: 1mM)	NP40-soluble protein abundance (concentration: 2mM)	NP40-soluble protein abundance (concentration: 4mM)	NP40-soluble protein abundance (concentration: 6mM)	NP40-soluble protein abundance (concentration: 8mM)	NP40-soluble protein abundance (concentration: 10mM)
CASP3 (UniProt P42574)	1.01 ± 0.026	0.977 ± 0.026	1.01 ± 0.019	0.957 ± 0.012	0.997 ± 0.019	0.985 ± 0.012
RPL29 (UniProt P47914)	0.989 ± 0.068	1.06 ± 0.05	0.941 ± 0.091	0.911 ± 0.12	0.843 ± 0.093	0.947 ± 0.18
UniProt P45985	0.974 ± 0.01	1.008 ± 0.0097	0.991 ± 0.015	0.994 ± 0.04	0.963 ± 0.02	1.02 ± 0.037
RAB27A (UniProt P51159)	0.977 ± 0.066	0.98 ± 0.027	0.98 ± 0.046	1.04 ± 0.078	1.02 ± 0.045	1.07 ± 0.034
STAT6 (UniProt P42226)	0.988 ± 0.019	0.992 ± 0.019	0.99 ± 0.011	0.983 ± 0.026	0.989 ± 0.025	0.998 ± 0.012
UniProt P42285	1.006 ± 0.0056	0.982 ± 0.062	1.07 ± 0.033	1.1 ± 0.036	1.14 ± 0.068	1.13 ± 0.089
UniProt P41227 and related entries	1.02 ± 0.036	1.07 ± 0.06	1.09 ± 0.03	1.15 ± 0.081	1.12 ± 0.052	1.18 ± 0.039
MTHFR (UniProt P42898)	1.01 ± 0.048	0.963 ± 0.046	0.996 ± 0.052	1.01 ± 0.021	0.987 ± 0.025	0.979 ± 0.012
UniProt P51149	0.941 ± 0.045	0.8959 ± 0.0061	0.922 ± 0.047	0.995 ± 0.07	0.997 ± 0.051	0.981 ± 0.047
UniProt P48960 and related entries	1.06 ± 0.062	1.1 ± 0.11	1.05 ± 0.1	1.03 ± 0.034	1.05 ± 0.069	1.03 ± 0.1
GTF2A1 (UniProt P52655)	0.999 ± 0.021	1 ± 0.012	0.971 ± 0.031	0.995 ± 0.016	0.986 ± 0.033	0.975 ± 0.039
RASSF2 (UniProt P50749)	1.02 ± 0.036	0.996 ± 0.028	0.999 ± 0.043	1.02 ± 0.055	1.05 ± 0.058	1.04 ± 0.071
UniProt P49748 and related entries	0.946 ± 0.041	0.877 ± 0.086	0.9404 ± 0.0076	0.972 ± 0.066	0.995 ± 0.018	0.949 ± 0.019
PREP (UniProt P48147)	0.9844 ± 0.0059	0.897 ± 0.14	0.96 ± 0.032	0.933 ± 0.012	0.965 ± 0.021	0.906 ± 0.018
LMAN1 (UniProt P49257)	0.982 ± 0.03	0.945 ± 0.052	0.94 ± 0.034	0.93 ± 0.019	0.9238 ± 0.0074	0.888 ± 0.032
SERPINH1 (UniProt P50454)	0.99 ± 0.021	0.9833 ± 0.0064	0.9778 ± 0.0089	0.9783 ± 0.0027	0.983 ± 0.015	0.977 ± 0.015
UniProt P52306 and related entries	0.968 ± 0.043	0.974 ± 0.038	0.973 ± 0.04	1.03 ± 0.076	1.01 ± 0.074	1.01 ± 0.068
UniProt P49005 and related entries	0.977 ± 0.021	0.947 ± 0.059	0.973 ± 0.027	0.929 ± 0.011	0.9339 ± 0.0057	0.925 ± 0.037
PTDSS1 (UniProt P48651)	0.993 ± 0.02	0.993 ± 0.043	1.07 ± 0.049	1.15 ± 0.047	1.29 ± 0.085	1.26 ± 0.047
IARS (UniProt P41252)	0.962 ± 0.051	0.843 ± 0.18	0.908 ± 0.12	0.918 ± 0.11	0.956 ± 0.14	0.878 ± 0.2
PBX2 (UniProt P40425)	0.994 ± 0.024	1.01 ± 0.053	0.982 ± 0.02	0.994 ± 0.048	1.01 ± 0.052	1.01 ± 0.054
RFX3 (UniProt P48380)	0.9907 ± 0.0079	1.005 ± 0.0034	0.97 ± 0.022	0.9769 ± 0.0063	1.005 ± 0.0064	0.9899 ± 0.0028
RABGGTB (UniProt P53611)	0.958 ± 0.016	0.924 ± 0.047	0.974 ± 0.05	0.979 ± 0.04	0.994 ± 0.034	0.949 ± 0.028
PRIM2 (UniProt P49643)	0.996 ± 0.022	0.954 ± 0.018	1 ± 0.013	1.02 ± 0.044	1.02 ± 0.027	1.02 ± 0.029
MTIF2 (UniProt P46199)	1.03 ± 0.016	1.01 ± 0.018	1.04 ± 0.014	1.02 ± 0.022	1 ± 0.028	1.04 ± 0.018
UniProt P49796 and related entries	0.983 ± 0.021	0.997 ± 0.049	0.972 ± 0.017	0.99 ± 0.026	0.997 ± 0.015	0.969 ± 0.05
FXR2 (UniProt P51116)	1.07 ± 0.022	1.1 ± 0.023	1.2 ± 0.025	1.24 ± 0.076	1.33 ± 0.051	1.39 ± 0.12
UniProt P48059-5	1.01 ± 0.043	0.961 ± 0.086	0.981 ± 0.031	0.942 ± 0.034	0.96 ± 0.044	0.958 ± 0.087
UniProt P48454 and related entries	1.02 ± 0.027	1.01 ± 0.014	1.01 ± 0.045	0.984 ± 0.025	0.976 ± 0.038	0.967 ± 0.046
UniProt P45974 and related entries	1.01 ± 0.014	1.01 ± 0.024	1 ± 0.036	0.967 ± 0.024	0.96 ± 0.018	0.963 ± 0.043

Rewritten bar-delimited: part of the list above.
Target | NP40-soluble protein abundance (concentration: 1mM) | NP40-soluble protein abundance (concentration: 2mM) | NP40-soluble protein abundance (concentration: 4mM) | NP40-soluble protein abundance (concentration: 6mM) | NP40-soluble protein abundance (concentration: 8mM) | NP40-soluble protein abundance (concentration: 10mM)
UniProt P45985 | 0.974 ± 0.01 | 1.008 ± 0.0097 | 0.991 ± 0.015 | 0.994 ± 0.04 | 0.963 ± 0.02 | 1.02 ± 0.037
RAB27A (UniProt P51159) | 0.977 ± 0.066 | 0.98 ± 0.027 | 0.98 ± 0.046 | 1.04 ± 0.078 | 1.02 ± 0.045 | 1.07 ± 0.034
STAT6 (UniProt P42226) | 0.988 ± 0.019 | 0.992 ± 0.019 | 0.99 ± 0.011 | 0.983 ± 0.026 | 0.989 ± 0.025 | 0.998 ± 0.012
UniProt P42285 | 1.006 ± 0.0056 | 0.982 ± 0.062 | 1.07 ± 0.033 | 1.1 ± 0.036 | 1.14 ± 0.068 | 1.13 ± 0.089
UniProt P41227 and related entries | 1.02 ± 0.036 | 1.07 ± 0.06 | 1.09 ± 0.03 | 1.15 ± 0.081 | 1.12 ± 0.052 | 1.18 ± 0.039
